Record: PubChem BioAssay AID743454 (Peter MacCallum Cancer Centre, 2014)

- Assay: 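Search for knock-downs that restore vorinostat killing in resistant colon cancer cells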 (primary screen)
- Cell system: human HCT116-VR colon cancer cells, selected for vorinostat resistance
- Reagents: siRNA pool against human genes, 40 nM siRNA pool
- Duration: vorinostat for 24 h, read-out about 72 h after transfection
- Challenge: vorinostat at 2.5 µM final
- Measurement: 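Cell viability by CellTiter-Fluor and caspase 3/7 activity by luminescence, each scaled to mock wells per plate, duplicates averaged, then robust z-scored over all plates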
- Reading the numbers: viability robust z-score: higher = more viable cells than screen typical; caspase robust z-score: higher = more caspase 3/7 activity than screen typical
- Hit rule: 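Hits are knock-downs in viability class RV1/RV2 or caspase class CA1/CA2, excluding ones that killed cells in the no-drug cell-count arm; hits then retested with single siRNAs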
Here is a random part of about 18,000 reagents tested. 450 of all reagents (2.5%) count as active. 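Single biological run; no consistent viability z cut-off exists, so the class columns, not z-scores, define the calls.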 Unmarked entries are inactive. Reagents against one gene are numbered here. Reagent sequences are not shown.

gene | pool no. | viability hit class | caspase hit class | viability robust z-score | caspase robust z-score
EIF1 (eukaryotic translation initiation factor 1) | 1 | no change | no change | 0.59 | -0.52
RFX5 (regulatory factor X5) | 1 | no change | no change | -1.71 | 2.34
NDUFA2 (NADH:ubiquinone oxidoreductase subunit A2) | 1 | no change | no change | 1.62 | -0.05
ANGPT2 (angiopoietin 2) | 1 | no change | no change | -0.15 | 0.76
TEC (tec protein tyrosine kinase) | 1 | no change | no change | 1.02 | -0.88
ZNF677 (zinc finger protein 677) | 1 | no change | no change | -0.41 | 0.6
CT47A1 (cancer/testis antigen family 47 member A1) | 1 | no change | no change | 0.49 | 1.94
MYO1F (myosin IF) | 1 | no change | no change | 0.42 | 0.53
PHLPP1 (PH domain and leucine rich repeat protein phosphatase 1) | 1 | no change | no change | 1.25 | -0.4
H4C11 (H4 clustered histone 11) | 1 | no change | no change | 0.66 | 0.25
TXLNA (taxilin alpha) | 1 | no change | no change | 0.23 | 0.12
BANF2 (BANF family member 2) | 1 | no change | no change | -0.62 | -0.7
KRTDAP (keratinocyte differentiation associated protein) | 1 | no change | no change | 0.92 | 1.61
MCRIP2 (MAPK regulated corepressor interacting protein 2) | 1 | no change | no change | 1.09 | 1.17
NEK4 (NIMA related kinase 4) | 1 | no change | no change | -0.37 | -0.98
LRRC75B (leucine rich repeat containing 75B) | 1 | no change | no change | 2.29 | 0.96
DDHD2 (DDHD domain containing 2) | 1 | no change | no change | -1.48 | 2.29
NCAPD2 (non-SMC condensin I complex subunit D2) | 1 | no change | no change | 0.38 | -0.39
CTNNA2 (catenin alpha 2) | 1 | no change | no change | -0.18 | -0.3
SART3 (spliceosome associated factor 3, U4/U6 recycling protein) | 1 | no change | no change | -0.48 | -0.17
NUDCD3 (NudC domain containing 3) | 1 | no change | no change | 0.31 | -0.86
PTK7 (protein tyrosine kinase 7 (inactive)) | 1 | no change | no change | -1.27 | 2.37
POLR3G (RNA polymerase III subunit G) | 1 | no change | no change | -0.68 | 4.6
MYOC (myocilin) | 1 | no change | no change | 0.56 | -0.64
PEA15 (proliferation and apoptosis adaptor protein 15) | 1 | no change | no change | 0.08 | -1.02
AGPAT5 (1-acylglycerol-3-phosphate O-acyltransferase 5) | 1 | no change | no change | 0.76 | -0.36
TMEM171 (transmembrane protein 171) | 1 | no change | no change | -0.8 | -0.89
OSER1 (oxidative stress responsive serine rich 1) | 1 | no change | no change | 0.32 | -0.5
SH3GLB2 (SH3 domain containing GRB2 like, endophilin B2) | 1 | no change (active) | CA2 (caspase activation) | -0.55 | 6.12
FAM221B (family with sequence similarity 221 member B) | 1 | no change | no change | -2.81 | 1.01
CLDN18 (claudin 18) | 1 | no change | no change | 0.76 | -0.55
PLCH2 (phospholipase C eta 2) | 1 | no change | no change | -0.68 | 2.42
PPIF (peptidylprolyl isomerase F) | 1 | no change | no change | -0.81 | 0.65
FAM9B (family with sequence similarity 9 member B) | 1 | no change | no change | 0.16 | -0.79
PTEN (phosphatase and tensin homolog) | 1 | no change | no change | 0.39 | 0.93
UTS2 (urotensin 2) | 1 | no change | no change | -0.12 | -0.8
SLA2 (Src like adaptor 2) | 1 | no change | no change | 0.75 | 2.45
LRFN3 | 1 | no change | no change | -1.06 | 1.45

Reformatted: results already given.
gene	pool no.	viability hit class	caspase hit class	viability robust z-score	caspase robust z-score
PTK7 (protein tyrosine kinase 7 (inactive))	1	no change	no change	-1.27	2.37
POLR3G (RNA polymerase III subunit G)	1	no change	no change	-0.68	4.6
MYOC (myocilin)	1	no change	no change	0.56	-0.64
PEA15 (proliferation and apoptosis adaptor protein 15)	1	no change	no change	0.08	-1.02
AGPAT5 (1-acylglycerol-3-phosphate O-acyltransferase 5)	1	no change	no change	0.76	-0.36
TMEM171 (transmembrane protein 171)	1	no change	no change	-0.8	-0.89
OSER1 (oxidative stress responsive serine rich 1)	1	no change	no change	0.32	-0.5
SH3GLB2 (SH3 domain containing GRB2 like, endophilin B2)	1	no change (active)	CA2 (caspase activation)	-0.55	6.12

The list goes on:
gene | pool no. | viability hit class | caspase hit class | viability robust z-score | caspase robust z-score
ABRAXAS2 (abraxas 2, BRISC complex subunit) | 1 | no change | no change | 1.36 | 0.15
KREMEN1 (kringle containing transmembrane protein 1) | 1 | no change | no change | 0.05 | -0.16
CBL (Cbl proto-oncogene) | 1 | no change | no change | -0.12 | 0.82
DDI2 (DDI proteasomal shuttling factor 2) | 1 | no change | no change | -0.26 | 0.68
DDI2 (DDI proteasomal shuttling factor 2) | 2 | no change | no change | 0.76 | -0.36
ITLN2 (intelectin 2) | 1 | no change | no change | 0.44 | -0.56
PRSS54 (serine protease 54) | 1 | no change | no change | 0.44 | -1.03
SACM1L (SAC1 like phosphatidylinositide phosphatase) | 1 | no change | no change | -0.12 | -0.57
PPARGC1B (PPARG coactivator 1 beta) | 1 | no change | no change | 0.42 | 0.63
NOBOX (NOBOX oogenesis homeobox) | 1 | no change | no change | 0.3 | -0.76
MIS18BP1 (MIS18 binding protein 1) | 1 | no change | no change | 0.94 | -0.42
SLC35E2A | 1 | no change | no change | 0.03 | 0.11
MGA (MAX dimerization protein MGA) | 1 | RV2 (reduced viability) (active) | no change | -3.12 | -0.84
TEX28 (testis expressed 28) | 1 | no change | no change | -0.14 | -0.09
GSAP (gamma-secretase activating protein) | 1 | no change | no change | 1.09 | 0.01
CTSL (cathepsin L) | 1 | no change | no change | -0.62 | -0.44
ZIM3 (zinc finger imprinted 3) | 1 | no change | no change | 1.54 | -0.6
CGB2 (chorionic gonadotropin subunit beta 2) | 1 | no change | no change | 0.5 | -0.36
OR11G2 (olfactory receptor family 11 subfamily G member 2) | 1 | no change | no change | 0.92 | 0.52
